Data published in publication PMC12040169 (PLOS Biology, 2025).
Some of the results follow.

system: T1, CTL2-GFP (C. trachomatis L2/434/Bu, GFP-expressing); design: species or system HeLa; Intracellular C. trachomatis growth in HeLa cells, bulk GFP fluorescence relative to DMSO; settings: bulk GFP, single well; 28.5 h, 10 µM; inhibitor
T1 construct: L2/434/Bu, GFP-expressing

| Compound | % of control remaining [%] |
| --- | --- |
| COc1ccc(S(=O)(=O)N(C)CC(=O)Nc2ccc(S(N)(=O)=O)cc2)cc1 [CBK265922] | 104.597 |
| CCC(C)(C)c1ccc(S(=O)(=O)N2CCN(CCCC#N)CC2)cc1 [CBK063134] | 128.34 |
| c1ccc2c(CN3CCCNCC3)cccc2c1 [CBK028773] | 125.695 |
| Cc1nc(-c2ccccc2)sc1C(=O)C1=C(O)C(=O)N(CCN2CCOCC2)C1c1cccs1 (stereo not drawn) [CBK266520] | 160.617 |
| c1ccc(OCCOc2nccnc2-c2ccsc2)cc1 [CBK106773] | 108.122 |
| COc1cc2c(cc1OC)C1c3ccccc3N(Cc3ccccc3)C(=O)N1CC2 (stereo not drawn) [CBK286192] | 116.667 |
| O=C(Cn1cc(C(=O)NC2(c3ccccc3)CCCC2)ccc1=O)NCc1ccc(F)cc1 [CBK286027] | 118.252 |
| C[C@H](Nc1cncc(-c2ccc3c(c2)OCO3)n1)c1ccccc1 [CBK065962] | 174.126 |
| CC1=C[C@@H](CNC(=O)c2cccnc2)[C@H](C(C)C)C[C@H]1CC(=O)N1CCCC1 [CBK289055] | 124.235 |
| COCCNC(=O)c1ccc(-c2ccccc2OC)nc1NCC1CC1 [CBK106246] | 104.534 |
| FC(F)(F)c1ccc(CN2CCN(c3nccnc3OCCN3CCOCC3)CC2)cc1 [CBK082890T] | 123.005 |
| Cc1nn(C)c(Cl)c1S(=O)(=O)Nc1ccc2nsnc2c1 [CBK062222] | 116.85 |
| O=C(CSc1nc2ccccc2s1)OCC(=O)c1cccc([N+](=O)[O-])c1 [CBK262361] | 105.307 |
| O=C(Nc1ccccc1O)c1ccc2c(c1)C(=O)N(c1ccc(Sc3ccc([N+](=O)[O-])cc3)cc1)C2=O [CBK262092] | 110.505 |
| O=C(c1nccs1)C1CCN(C(=O)Cc2cccc(F)c2)CC1 [CBK284208] | 136.922 |
| COc1cccc(CN2CCC3(C2)c2[nH]c4ccccc4c2CCN3Cc2cccc(OC)c2)c1 (stereo not drawn) [CBK059468] | 89.962 |
| Cc1cc(C)n2nc(NC(=O)C(C)Oc3ccccc3)nc2n1 (stereo not drawn) [CBK270039] | 123.199 |
| CC1(C)CN(Cc2cccc(-c3ccccn3)c2)CCS1(=O)=O [CBK304284] | 75.0849 |
| Clc1ccc(COc2nccnc2OCc2cccnc2N2CCOCC2)cc1Cl [CBK161610] | 100.84 |
| Cc1cc(NS(=O)(=O)c2cccc([N+](=O)[O-])c2)n(C)n1 [CBK067243] | 122.271 |
| COc1ccc(C)cc1-n1ccc(C(=O)NC2(C#N)CCSC2)n1 (stereo not drawn) [CBK304943] | 101.182 |
| COc1cccc(C2CC(=O)Nc3c2c(=O)nc(SC)n3C)c1 (stereo not drawn) [CBK307546] | 123.314 |
| Cn1nc(-c2ccccc2)cc1[C@H]1CN2CC[C@H]1C[C@@H]2CNS(C)(=O)=O [CBK289096] | 124.125 |
| CC(C)Nc1cc(Sc2cccc(C(=O)O)c2)ncn1 [CBK093583] | 97.8966 |

| Compound | % of control remaining [%] |
| --- | --- |
| CN1CCN(c2ccc(-c3cnc4[nH]c(=O)n(C5CC5)c4n3)cc2)CC1 [CBK064899] | 148.183 |
| Cc1nn(CC(=O)OC(C)C)c(=O)c2cc3sccc3n12 [CBK284022] | 143.715 |
| Cc1ccc(-n2ncc3c(=O)n(CC(=O)Nc4cccc(C)c4)cnc32)cc1 [CBK287533] | 122.705 |
| Cn1ccnc1CCC1CCCCN1C(=O)NCc1cccc(F)c1 (stereo not drawn) [CBK307124] | 95.1296 |
| Cn1c2ccc(Br)cc2c2nnc(SCC(=O)N3c4ccccc4Sc4ccccc43)nc21 [CBK263900] | 117.218 |
| COc1ccc(-c2cnc(N)c(-c3ccc(C(=O)NCCO)cc3)n2)cn1 [CBK064147] | 186.419 |
| CC(C)[C@@H]1C[C@H](C(F)(F)F)n2nc(C3CCCNC3)cc2N1 (stereo partly drawn) [CBK283056] | 132.355 |
| Cc1nc2ccccn2c1CC(=O)N1CCCC(c2ccc(Cc3cccc(F)c3)cn2)C1 (stereo not drawn) [CBK286002] | 66.7897 |
| COc1cc(OC)c(OC)cc1CN1CCN(S(=O)(=O)c2ccc(C)cc2)CC1 [CBK263323] | 102.062 |
| O=CN1CCN(S(=O)(=O)c2ccc3c(c2)Cc2cc(S(=O)(=O)N4CCN(C=O)CC4)ccc2-3)CC1 [CBK264351] | 132.082 |
| OC1(Cn2ccc3ncccc32)CCN(CC2CC=CCC2)CC1 (stereo not drawn) [CBK284782] | 150.883 |
| CC(C)(C)OC(=O)N1CCN(c2cncc(NCc3ccccc3)n2)CC1 [CBK000154] | 120.895 |
| CCCC/C=C/c1nccnc1NCc1ccc(C(F)(F)F)cc1 [CBK038077] | 131.507 |
| COc1ccccc1/C=C1/S/C(=N/Cc2ccccc2)N(Cc2ccccc2)C1=O [CBK262234] | 108.205 |
| O=C(O)C1CCCCC1C(=O)NCCCCc1ccccc1 (stereo not drawn) [CBK287205] | 143.124 |
| Cc1ccc(N(C(C)C(=O)Nc2ccccc2-c2ccccc2)S(C)(=O)=O)cc1 (stereo not drawn) [CBK267889] | 90.9115 |
| CC(=O)C1=C(O)C(=O)N(CCN2CCNCC2)C1c1cccc([N+](=O)[O-])c1 (stereo not drawn) [CBK263320] | 83.9673 |
| CC1(C)Cc2ccccc2C(NC(Cc2ccccc2)C(=O)O)=N1 (stereo not drawn) [CBK262533] | 100.28 |
| O=c1c(N2CCCNCC2)nccn1CCOc1ccc(Oc2ccccc2)cc1 [CBK028615T] | 131.933 |
| O=C(Nc1cccc(C(=O)O)c1)/C(=C\c1ccco1)NC(=O)c1ccc(Br)cc1 [CBK263707] | 105.146 |
| CC(C)Oc1ncccc1OCc1ccccc1 [CBK001457] | 122.415 |
| CCOC(=O)NC(Nn1cnnc1)(C(F)(F)F)C(F)(F)F [CBK261344] | 78.9237 |
| CCc1[nH]c(=O)c(C(=O)N2CCc3[nH]c4c(C)cccc4c3C2)cc1C [CBK281586] | 131.857 |
| CN(Cc1ccc(-c2ccc(S(C)(=O)=O)cc2)cn1)C1CCN(C(=O)CC(C)(C)O)CC1 [CBK165684T] | 101.514 |

An excerpt from above in order of SMILES length, descending:

| Compound | % of control remaining [%] |
| --- | --- |
| O=CN1CCN(S(=O)(=O)c2ccc3c(c2)Cc2cc(S(=O)(=O)N4CCN(C=O)CC4)ccc2-3)CC1 [CBK264351] | 132.082 |
| CC1=C[C@@H](CNC(=O)c2cccnc2)[C@H](C(C)C)C[C@H]1CC(=O)N1CCCC1 [CBK289055] | 124.235 |
| CN1CCN(c2ccc(-c3cnc4[nH]c(=O)n(C5CC5)c4n3)cc2)CC1 [CBK064899] | 148.183 |
